According to the supplement of paper PMC6289059:
Values joined by “and” are separate entries in the source; they are usually repeats but may differ in a detail not shown here. Equal entries are not always repeated. The list shows a part of the results. Many values rest on one well or one pass, so single values are uncertain.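 Hepatocyte-like cells derived from human stem cells with CRISPR-disrupted DGUOK model liver mtDNA depletion syndrome. Each well's ATP signal was scored against other wells on the same plate, and drugs scoring 3 or above were primary hits.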

System: DGUOK Δ14/Δ5 iPSC-derived hepatocyte-like cells (SV20)
Experiment: ATP level (CellTiter-Glo luminescence) Z score relative to plate distribution, under 2-DG glycolysis block; higher = more cellular ATP (rescue of mitochondrial ATP production)
Conditions: 5 µM; treatment time: day 15 to day 20 of differentiation (5 days); 2-deoxy-D-glucose: 20 mM for 24 h before assay

Compound | ATP level
C[C@](N)(Cc1ccc(O)cc1)C(=O)O [alpha-METHYL-L-TYROSINE] | inactive: 2.2
CCN(CC)CCCC(C)Nc1ccnc2cc(Cl)ccc12 (stereo not drawn) | inactive: -1.82
FCOC(C(F)(F)F)C(F)(F)F | inactive: -1.02
O=C1CC(c2ccccc2)Oc2ccccc21 (stereo not drawn) | inactive: -0.869
CCCCCC1C(=O)CCC1CC(=O)OC (stereo not drawn) | inactive: 1.22
Nc1ccc(S(=O)(=O)NC(=O)c2ccccc2)cc1 | inactive: 0.323
C[N+](C)(C)CCOP(=O)(O)OP(=O)([O-])OC[C@H]1O[C@@H](n2ccc(N)nc2=O)[C@H](O)[C@@H]1O | inactive: 0.844
CC(C)c1nc(N(C)S(C)(=O)=O)nc(-c2ccc(F)cc2)c1/C=C/[C@@H](O)C[C@@H](O)CC(=O)O | inactive: 0.29
C=C(CC)C(=O)c1ccc(OCC(=O)O)c(Cl)c1Cl | inactive: -0.403
Oc1ccc2c(c1)OC[C@]1(O)Cc3cc(O)c(O)cc3[C@H]21 | inactive: -1.42
C[Se]CC[C@H](N)C(=O)O | inactive: 1.11
C1N2CN3CN1CN(C2)C3 | inactive: 0.0362
CCCCCN(C)CCC(O)(P(=O)(O)O)P(=O)(O)O | inactive: 2.27
Cc1ncc([N+](=O)[O-])n1C | inactive: -0.405
C[C@@H](O)[C@H]1C(=O)N2C(C(=O)O)=C(SCCNC=N)C[C@H]12 | inactive: -15.1
c1ccc2c(c1)CCCC2C1=NCCN1 (stereo not drawn) | inactive: -0.375
C=CCc1ccc(O)c(OC)c1 | inactive: -0.451
CCn1cc(C(=O)O)c(=O)c2cc(F)c(N3CCNCC3)nc21 | inactive: -29.8
CC(=O)OCC(=O)NCCCOc1cccc(CN2CCCCC2)c1 | inactive: 0.123
CN(C)c1cnccn1 | inactive: -3.28

Compound | ATP level
COc1cc(O)c(C(=O)/C=C/c2ccc(OC)c(O)c2)c(OC)c1 | inactive: 1.02
CCCc1ncc(C[n+]2ccccc2C)c(N)n1 | inactive: 1.48
C=CC(C)(O)CCC=C(C)CCC=C(C)C (mixture of isomers) | inactive: -1.21
CC(=O)N[C@@H](Cc1c[nH]c2ccccc12)C(=O)O | inactive: -0.865
Oc1ccc(C2CNCCc3c2cc(O)c(O)c3Cl)cc1 (stereo not drawn) | inactive: 1.67
COc1ccccc1-c1coc2cc(O)ccc2c1=O | inactive: -4
CC(C(=O)O)c1cccc(Oc2ccccc2)c1 (stereo not drawn) | inactive: -4.47
O=C1OC(c2ccc(O)cc2)(c2ccc(O)cc2)c2ccccc21 | inactive: 1.44
COc1cc(C(=S)N2CCOCC2)ccc1O | inactive: 2.29
COc1cc(OC)c2c(=O)cc(-c3ccccc3)oc2c1 | inactive: -1.32
COc1ccc2c(C)cc(=O)oc2c1 | inactive: 1.07
COC(=O)C[C@H]1C(C)(C)[C@@H](O)[C@@H]2CC3=C4C=C(OC)O[C@@H](c5ccoc5)[C@]4(C)CCC3[C@@]1(C)C2=O (stereo partly drawn) [3-DEOXO-3beta-HYDROXYMEXICANOLIDE 16-ENOL ETHER] | inactive: -1.76
COc1cc2occ(-c3ccc(OC)c(OC)c3OC)c(=O)c2cc1OC | inactive: 1.78
Cc1ccc(N(CC2=NCCN2)c2cccc(O)c2)cc1 | inactive: 0.875
CCc1ccc(CCOc2ccc(CC3SC(=O)NC3=O)cc2)nc1 (stereo not drawn) | inactive: 2.04
CCCSc1ccc2[nH]c(NC(=O)OC)nc2c1 | inactive: -2.81
Cc1c(Cl)cccc1Nc1ccccc1C(=O)O | inactive: -5.45
C[C@@H]1CC[C@H]2C(C)(C)[C@H]3C[C@@]12CC[C@@]3(C)O | inactive: 1.18
CO[C@H]1/C=C/O[C@@]2(C)Oc3c(C)c(O)c4c(O)c(c(/C=N/N5CCN(C)CC5)c(O)c4c3C2=O)NC(=O)/C(C)=C\C=C\[C@H](C)[C@H](O)[C@@H](C)[C@@H](O)[C@@H](C)[C@H](OC(C)=O)[C@@H]1C | inactive: -0.026
COc1cc(C)c(C(=O)O)c(O)c1 | inactive: 1.73

Compound | ATP level
CC(C(=O)O)c1ccc(CC2CCCC2=O)cc1 (stereo not drawn) | inactive: 0.282
CC[C@H]1OC(=O)[C@H](C)[C@@H](O[C@H]2C[C@@](C)(OC)[C@@H](O)[C@H](C)O2)[C@H](C)[C@@H](O[C@@H]2O[C@H](C)C[C@H](N(C)C)[C@H]2O)[C@](C)(O)C[C@@H](C)C(=O)[C@H](C)[C@@H](O)[C@]1(C)O | inactive: 1.07 and inactive: -0.173
CC1=C(/C=C/C(C)=C/C=C/C(C)=C/C=C/C=C(C)/C=C/C=C(C)/C=C/C2=C(C)CCCC2(C)C)C(C)(C)CCC1 [beta-CAROTENE [2mM]] | inactive: -11
OCCN1CCN(CCCN2c3ccccc3Sc3ccc(C(F)(F)F)cc32)CC1 | inactive: -2.43
CC(C)(Oc1ccc(CCNC(=O)c2ccc(Cl)cc2)cc1)C(=O)O | inactive: 1.47
c1ccc(CC2=NCCN2)cc1 | inactive: -0.799
NCCCCC(=O)O | inactive: -1.24
CC1=CC(=O)[C@H]2C(C)(C)CCC[C@]2(C)[C@@]1(O)CCc1ccoc1 | inactive: -2.82
CC(=O)OCC(=O)[C@H]1CC[C@H]2[C@@H]3CC=C4C[C@@H](O)CC[C@]4(C)[C@H]3CC[C@]12C | inactive: 0.0911
Clc1ccc2c(c1)C(N1CCNCC1)=Nc1ccccc1O2 | inactive: -17.3
O=C1c2ccccc2C(=O)C1c1ccccc1 | inactive: 1.33
CC(C)[C@@H](C)/C=C/[C@@H](C)[C@H]1CC[C@H]2C3=CC=C4C[C@@H](O)CC[C@]4(C)[C@H]3CC[C@]12C | inactive: 1.1
CC1(C)C=Cc2c(c3c(c4c(=O)c(-c5ccc(O)cc5)coc24)OC(C)(C)CC3)O1 | inactive: -1.02
COc1ccc(-c2coc3cc(O)ccc3c2=O)cc1 | inactive: -1.87
Oc1c(Br)cc(Br)c2cccnc12 | inactive: -1.11
COc1ccc(C(=O)CCC(=O)O)c2ccccc12 | inactive: -0.641
NC(=O)c1ccccc1O | inactive: -12.3
COc1cc2c(cc1OC)C1C(=O)c3c(O)cc4c(c3OC1CO2)C=CC(C)(C)O4 (stereo not drawn) [alpha-TOXICAROL (dl)] | inactive: -14.9

Reprinted at random: four compounds from above
Compound | ATP level
CCCSc1ccc2[nH]c(NC(=O)OC)nc2c1 | inactive: -2.81
Cc1c(Cl)cccc1Nc1ccccc1C(=O)O | inactive: -5.45
CCCc1ncc(C[n+]2ccccc2C)c(N)n1 | inactive: 1.48
CC1=CC(=O)[C@H]2C(C)(C)CCC[C@]2(C)[C@@]1(O)CCc1ccoc1 | inactive: -2.82
